Reference: PMC7557402, “Evaluation of Nucleoside Analogs as Antimicrobials Targeting Unique Enzymes in Borrelia burgdorferi” (Pathogens, 2020)

Test system: Borrelia MTANs (Bgp, MtnN, Pfs)
Experiment: MTAN activity/kinetics, across the nucleosidases
Assay type: biochemical
Settings: Bgp and Pfs
Procedure: Enzyme specific activities were determined using previously reported optimal pH conditions (50 mM sodium phosphate, pH = 7, for Bgp, MtnN; 50 mM sodium phosphate-citrate, pH = 5, for Pfs) and a spectrophotometric activity assay that measures the decrease in UV absorbance at 275 nm that occurs when MTA is cleaved to 5-methylthioribose and adenine (ε275 = 1.6 mM^−1cm^−1). The extinction coefficients for cleavage of other nucleosides were experimentally validated and found to be the same for MSeA, FSBA, and IADO (ε275 = 1.6 mM^−1cm^−1). Due to the added UV absorbance imparted by the 5′ purine group found in PurTA, the enzyme reactions were followed spectrophotometrically at 260 nm using the experimentally determined extinction coefficient of ε260 = 5.6 mM^−1cm^−1. Enzyme specific activities for MTA were generally 1–2 U/mg (1 U = µmol MTA hydrolyzed/min). The enzyme specific activities for other nucleosides were determined and reported in U/mg and as the % max specific activity (relative to MTA at 100%).
Kinetic constants have been previously reported for MTA [18]. […]

How did the “Km higher than reported for MTA” value turn out when “5′-deoxy-5′-methylselenoadenosine [MSeA]” was run?
The value was “approximately 3 fold”.
